Results on one molecule are retold here after PubChem BioAssay AID1918942 (Molecular Pharmacology Branch, DTP, NCI, 2023).

This test has as its system 743489-274-T-PDC complex spheroid viability. Description: Anticancer human tumor 743489-274-T-PDC patient-derived renal cell carcinoma cell line growth inhibition. As to conditions: compound 10 µM; stronger effect = lower value. The text has this: Multicellular complex tumor spheroid response to LSD1 Inhibitor Iadademstat in combination with a variety of drugs and investigational agents in selected tumor cell lines
The current study was undertaken to assess response to LSD1 inhibitors in combination with standard-of-care drugs and investigational agents in solid tumor complex spheroid models as well as in the K-562 leukemia. Complex spheroids include a stromal component modeled by human endothelial cells (HUVEC) and fibroblasts modeled by human mesenchymal stem cells (MSCs). The concentration ranges selected for each drug and investigational agent were based upon clinically achievable concentrations if the clinical Cmax of the agent was known.
Compounds. The drugs and investigational agents used in this study are listed on Table 1. All of the agents used, including staurosporine (NSC755774) and gemcitabine (NSC613327), were obtained from the Developmental Therapeutics Program, NCI. FDA-approved anticancer drugs are available from the NCI at http://dtp.nci.nih.gov/branches/dscb/oncology_drugset_explanation.html. Drugs and investigational agents were >95% pure by proton nuclear magnetic resonance (NMR) and liquid chromatography/mass spectrometry (LC/MS). […] If the clinical Cmax for an agent had not been determined, the highest concentration tested was 10 microM. […]

This continues a long series; more values of the same kind are listed elsewhere.
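Note: spheroids exposed to compounds for 7 days before readout; 100% = DMSO vehicle control wells.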

For orientation: viability, T/C means the result in the treated group divided by that in the control group, in per cent. Turning to `NC1CCC(NC2CC2c2ccccc2)CC1` (stereo unspecified), the viability, T/C was 105%.
